Measurements taken from article PMC6501013.
No signal at the amounts used counts as a negative.

Chains of the proteins cited; added tags and fusions are not shown. Lines headed by an entry give the natural chain unless they say otherwise; changes in a name come on top.
UniProt Q9BPX3: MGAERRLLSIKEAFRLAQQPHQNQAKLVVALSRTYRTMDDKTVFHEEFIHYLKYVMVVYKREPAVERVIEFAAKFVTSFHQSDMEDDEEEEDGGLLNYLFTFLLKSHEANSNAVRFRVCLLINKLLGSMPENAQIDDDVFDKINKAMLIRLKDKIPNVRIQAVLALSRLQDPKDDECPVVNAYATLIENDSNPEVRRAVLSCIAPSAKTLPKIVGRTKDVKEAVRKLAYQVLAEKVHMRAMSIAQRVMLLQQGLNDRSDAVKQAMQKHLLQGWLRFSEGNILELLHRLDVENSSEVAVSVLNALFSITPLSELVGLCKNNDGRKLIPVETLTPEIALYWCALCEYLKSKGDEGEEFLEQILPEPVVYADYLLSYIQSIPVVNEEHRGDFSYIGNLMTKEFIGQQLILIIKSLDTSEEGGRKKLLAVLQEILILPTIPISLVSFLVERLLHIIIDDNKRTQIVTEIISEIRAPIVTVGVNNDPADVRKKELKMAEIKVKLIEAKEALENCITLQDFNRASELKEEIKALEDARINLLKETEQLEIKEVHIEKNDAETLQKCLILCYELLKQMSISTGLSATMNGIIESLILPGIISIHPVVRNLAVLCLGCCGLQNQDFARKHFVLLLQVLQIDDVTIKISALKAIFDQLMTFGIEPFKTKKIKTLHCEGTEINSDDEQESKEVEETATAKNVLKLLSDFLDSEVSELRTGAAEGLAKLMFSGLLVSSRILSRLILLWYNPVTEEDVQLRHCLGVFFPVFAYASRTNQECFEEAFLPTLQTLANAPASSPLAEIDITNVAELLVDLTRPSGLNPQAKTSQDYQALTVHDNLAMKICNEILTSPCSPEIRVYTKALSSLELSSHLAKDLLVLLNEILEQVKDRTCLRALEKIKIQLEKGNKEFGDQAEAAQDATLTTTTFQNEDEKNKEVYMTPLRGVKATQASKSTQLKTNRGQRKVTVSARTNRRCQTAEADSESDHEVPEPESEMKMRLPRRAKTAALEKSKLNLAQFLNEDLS

Molecular target: hCAP-G del479-553 (Homo sapiens) (UniProt Q9BPX3)
Assay: EMSA
Settings: CAP-G alone, DNA 6.7 uM, up to 1:4, EMSA: DNA 6.7 uM (FAM probe 1.7 uM), protein 1:1-1:4 (2 equivalents in competition), overnight at 4 C, 1% agarose at 4 C, binding buffer, recombinant protein, residues 1-900, protein details: N-terminal His6, label: none (GelRed stain)

Sequence	binding result	binding result (single-stranded DNA)
CCTATAGTGAGTCGTATTACAATTCACTCG (double strand) [30-bp dsDNA]	no binding	
CCTATAGTGAGTCGTATTACAATTCACTCG [30-mer ssDNA]		no binding
